The target of this assay is GFP-PYLcs (GFP fused to PYL1 aa 33-209) (Arabidopsis thaliana) [GFP: P42212]. Description: GST pull-down: GST-ABIcs on glutathione beads, GFP-PYLcs from 293T whole-cell lysate, with or without 500 µM ABA, Western blot.

Sequences of proteins named here, by UniProt entry; tags and fusion partners are left off. A change or cut given only in a name is not applied to a line headed by its entry.
UniProt P49597: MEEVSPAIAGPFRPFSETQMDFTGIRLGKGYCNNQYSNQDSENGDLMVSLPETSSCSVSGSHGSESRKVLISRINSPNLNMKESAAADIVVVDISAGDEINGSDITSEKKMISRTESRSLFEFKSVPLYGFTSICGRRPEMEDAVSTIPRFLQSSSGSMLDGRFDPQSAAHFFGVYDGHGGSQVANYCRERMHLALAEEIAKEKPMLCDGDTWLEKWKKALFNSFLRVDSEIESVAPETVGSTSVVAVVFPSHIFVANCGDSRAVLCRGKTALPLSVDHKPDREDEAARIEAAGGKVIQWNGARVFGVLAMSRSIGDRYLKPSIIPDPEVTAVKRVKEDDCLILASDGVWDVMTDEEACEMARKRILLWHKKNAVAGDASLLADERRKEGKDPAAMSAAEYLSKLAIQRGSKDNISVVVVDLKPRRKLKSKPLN

No constants are given. Whether binding was seen depends on the method and setting. Binding seen in cells or lysates may run through a third protein. Some entries that bind do so weakly or less than the wild type.

In the case of “GST-ABIcs, wild type (glutathione S-transferase fused to ABI1 aa 126-423) (from UniProt P49597 126-423)”, the binding entry is on record as “binds”.

The values above are taken from patent US20130158098A1, “Alkenyl Substituted Cycloaliphatic Compounds as Chemical Inducers of Proximity” (priority 2010, published 2013).
